The values that follow come from patent US20100331240A1 (GENERAL HOSPITAL, published 2010).

In this test the target is T1, biotinylated human placental calreticulin (human, UniProt P27797 18-417, biotinylated (sites not given)).
T1 sequence: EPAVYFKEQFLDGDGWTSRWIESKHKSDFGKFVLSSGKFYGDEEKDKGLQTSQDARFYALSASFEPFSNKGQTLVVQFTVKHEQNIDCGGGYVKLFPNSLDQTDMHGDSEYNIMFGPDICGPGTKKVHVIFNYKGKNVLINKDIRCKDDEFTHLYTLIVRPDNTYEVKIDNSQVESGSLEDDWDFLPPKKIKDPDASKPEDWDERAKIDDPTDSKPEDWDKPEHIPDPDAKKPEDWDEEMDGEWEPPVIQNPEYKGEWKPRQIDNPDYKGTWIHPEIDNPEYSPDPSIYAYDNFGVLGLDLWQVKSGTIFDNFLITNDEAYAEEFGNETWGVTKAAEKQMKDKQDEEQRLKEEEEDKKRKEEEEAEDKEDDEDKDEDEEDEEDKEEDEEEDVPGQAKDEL
The test can be described thus: ELISA: plate coated with lectin 10 ug/mL, biotinylated calreticulin 5 ug/mL, O.D. 405.

B1: L-FCN-MBL126 chimeric L-ficolin-MBL fusion protein (other)
chain: LQAADTCPEVKMVGLEGSDKLTILRGCPGLPGAPGPKGEAGTNGKRGERGPPGPPGKAGPPGPNGAPGEPQPCLTGPRTCKDLLDRGHFLSGWHTIYLPDCRPLTFSLGKQVGNKFFLTNGEIMTFEKVKALCVKFQASVATPRNAAENGAIQNLIKEEAFLGITDEKTEGQFVDLTGNRLTYTNWNEGEPNNAGSDEDCVLLLKNGQWNDVPCSTSHLAVCEFPI
With B1, the binding result was “binds”.
